Data as given in PubChem BioAssay AID504808 (Drosophila RNAi Screening Center, 2011).
The deposit covers about 21,000 reagents; shown is a random part of those that have a named target and a result. Of all reagents, 18 (0.084%) got an active call. 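Raw counts without plate normalisation, one of two replicates; the ratio scores behind the calls were not deposited.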 Names joined by + are all predicted targets of the reagent. No sequences are given here. Not given: the amount of reagent, the time to read-out.

Purpose: 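Chromatin factors that keep E2F targets switched off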 (primary screen)
System: Drosophila S2 cells
Reagents: long dsRNA against Drosophila genes
Detection: 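Dual luciferase plate measurements; E2F-specific signal taken as firefly over Renilla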
Scale: E2F firefly: higher = more E2F reporter activity; Renilla normaliser: higher = more normaliser reporter signal
Call rule: 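Called active if the normalised E2F reporter went up by over 50%; the cutoff is arbitrary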

target	DRSC id	E2F firefly, rep 1	Renilla normaliser, rep 1	Call
CG42445	DRSC10858	75401	3494	inactive
ome	DRSC09322	1.43e5	4291	inactive
ome	DRSC10282	1.48e5	7435	inactive
ome	DRSC11380	1.48e5	6342	inactive
Nrd1	DRSC19830	7787	776	inactive
Gr2a	DRSC18603	87001	4663	inactive
CG4455	DRSC01983	72441	3439	inactive
Inx3	DRSC14857	1952	900	inactive
Stt3A	DRSC20514	1.47e5	5185	inactive
Pus10	DRSC00629	1.02e5	4034	inactive
CG40583 (retired record)	DRSC20938	83597	2728	inactive
Atg10	DRSC06172	1.43e5	4555	inactive
CG34149	DRSC14537	63121	2984	inactive
tal-1A + tal-2A + tal-AA + 1 more	DRSC12992	78645	2561	inactive
CG3065	DRSC04333	74691	2971	inactive
Dcps	DRSC12299	73895	4195	inactive
lost	DRSC12002	98488	4292	inactive
lost	DRSC12234	92181	3218	inactive
Hsp70Bb + Hsp70Bbb	DRSC15885	1.46e5	7159	inactive
ssp	DRSC10252	61198	3796	inactive
MESR4	DRSC06901	1.64e5	5381	inactive
CG34409	DRSC14577	1.38e5	6888	inactive

Next part; the last 2 above are carried over.
target	DRSC id	E2F firefly, rep 1	Renilla normaliser, rep 1	Call
MESR4	DRSC06901	1.64e5	5381	inactive
CG34409	DRSC14577	1.38e5	6888	inactive
CG14598	DRSC12541	1.31e5	6477	inactive
CG8180	DRSC07092	73367	3348	inactive
CG8180	DRSC07093	1.01e5	4545	inactive
CG32651	DRSC18941	82121	2813	inactive
CG45263	DRSC12682	62218	3670	inactive
CG45263	DRSC14360	1.38e5	6169	inactive
CG45263	DRSC14361	1.35e5	6721	inactive
CG45263	DRSC14363	1.72e5	7118	inactive
salm	DRSC03606	1.37e5	5041	inactive
Lsd-2	DRSC20143	8338	776	inactive
CG4306	DRSC10409	1.55e5	8820	inactive
Dtg	DRSC15998	69559	3564	inactive
